Assay results reported in patent publication US20110280809A1.
These are yes or no findings as the source states them, for the method shown. Binding seen in cells or lysates may run through a third protein. Some entries that bind do so weakly or less than the wild type.

The chains behind the UniProt entries cited, without tags or fusion partners. Residues count along the entry.
UniProt P11021, residues 19-654: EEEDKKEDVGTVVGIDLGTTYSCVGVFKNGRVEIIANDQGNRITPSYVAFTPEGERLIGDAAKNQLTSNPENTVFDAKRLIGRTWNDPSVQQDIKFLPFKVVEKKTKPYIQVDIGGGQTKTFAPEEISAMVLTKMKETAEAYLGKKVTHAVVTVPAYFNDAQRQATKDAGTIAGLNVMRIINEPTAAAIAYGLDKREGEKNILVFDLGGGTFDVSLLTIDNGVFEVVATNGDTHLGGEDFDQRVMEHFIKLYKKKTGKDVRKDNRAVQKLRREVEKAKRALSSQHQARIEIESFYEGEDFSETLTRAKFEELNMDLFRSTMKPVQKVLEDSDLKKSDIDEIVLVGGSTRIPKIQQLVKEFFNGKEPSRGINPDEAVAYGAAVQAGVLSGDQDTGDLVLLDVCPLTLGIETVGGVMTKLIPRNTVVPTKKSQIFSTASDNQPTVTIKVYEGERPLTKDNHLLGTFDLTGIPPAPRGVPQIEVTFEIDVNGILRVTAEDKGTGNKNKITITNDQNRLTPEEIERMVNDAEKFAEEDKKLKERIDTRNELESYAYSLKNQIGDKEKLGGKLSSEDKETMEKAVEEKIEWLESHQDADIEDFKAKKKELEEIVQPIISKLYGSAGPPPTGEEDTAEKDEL

Columns and labels:
[1] = biological target: Hspa5 (endogenous protein of Jurkat cells) (human) (UniProt P11021); assay: co-immunoprecipitation from DSP-crosslinked Jurkat cells (referred back to)
[2] = biological target: Hspa5 (endogenous protein of Jurkat cells) (human) (UniProt P11021); assay: co-immunoprecipitation with anti-Pdia4 antibody from DSP-crosslinked Jurkat cells, Western blot with anti-Hspa5
[3] = biological target: Hspa5 (endogenous protein of Jurkat cells) (human) (UniProt P11021); assay: co-immunoprecipitation with anti-Pdia4 antibody from DSP-crosslinked Jurkat cells, Western blot with anti-Hspa5 or anti-Pdia4

binding [1]: binds | binding [2]: binds | binding [3]: binds
B1: Pdia4 (endogenous protein of Jurkat cells) (enzyme, human, UniProt P13667 21-645, looked up)
chain: VAGAEGPDEDSSNRENAIEDEEEEEEEDDDEEEDDLEVKEENGVLVLNDANFDNFVADKDTVLLEFYAPWCGHCKQFAPEYEKIANILKDKDPPIPVAKIDATSASVLASRFDVSGYPTIKILKKGQAVDYEGSRTQEEIVAKVREVSQPDWTPPPEVTLVLTKENFDEVVNDADIILVEFYAPWCGHCKKLAPEYEKAAKELSKRSPPIPLAKVDATAETDLAKRFDVSGYPTLKIFRKGRPYDYNGPREKYGIVDYMIEQSGPPSKEILTLKQVQEFLKDGDDVIIIGVFKGESDPAYQQYQDAANNLREDYKFHHTFSTEIAKFLKVSQGQLVVMQPEKFQSKYEPRSHMMDVQGSTQDSAIKDFVLKYALPLVGHRKVSNDAKRYTRRPLVVVYYSVDFSFDYRAATQFWRSKVLEVAKDFPEYTFAIADEEDYAGEVKDLGLSESGEDVNAAILDESGKKFAMEPEEFDSDTLREFVTAFKKGKLKPVIKSQPVPKNNKGPVKVVVGKTFDSIVMDPKKDVLIEFYAPWCGHCKQLEPVYNSLAKKYKGQKGLVIAKMDATANDVPSDRYKVEGFPTIYFAPSGDKKNPVKFEGGDRDLEHLSKFIEEHATKLSRTKEEL
